Article doi:10.1101/2024.08.02.606340
These are yes or no findings as the source states them, for the method shown. Some binding calls cover weakened binding; strength is not graded here.

Target: VSIG3-mCherry expressed in NALM6 cells (human) (UniProt Q5DX21)
Experiment: cell aggregation assay

B1: VSIG3-mCherry expressed in NALM6 cells (ligand, UniProt Q5DX21 23-431)
chain: LEVSESPGSIQVARGQPAVLPCTFTTSAALINLNVIWMVTPLSNANQPEQVILYQGGQMFDGAPRFHGRVGFTGTMPATNVSIFINNTQLSDTGTYQCLVNNLPDIGGRNIGVTGLTVLVPPSAPHCQIQGSQDIGSDVILLCSSEEGIPRPTYLWEKLDNTLKLPPTATQDQVQGTVTIRNISALSSGLYQCVASNAIGTSTCLLDLQVISPQPRNIGLIAGAIGTGAVIIIFCIALILGAFFYWRSKNKEEEEEEIPNEIREDDLPPKCSSAKAFHTEISSSDNNTLTSSNAYNSRYWSNNPKVHRNTESVSHFSDLGQSFSFHSGNANIPSIYANGTHLVPGQHKTLVVTANRGSSPQVMSRSNGSVSRKPRPPHTHSYTISHATLERIGAVPVMVPAQSRAGSLV
binding: binds
